Assay results published in the supplement of paper PMC10663445.
Where a name gives a salt, the structure may show the parent alone. The list shows a part of the results. Single values are uncertain, as repeats are few or missing.

System: hsa-miR-132-3p
Experiment: miR-132-3p level in NGN2-iNs after compound treatment (TMM-normalised, ComBat batch-corrected) (batch-corrected normalised expression (arbitrary units)); higher = higher miR-132-3p expression
Settings: 10 µM; 24 h; human iPSC-derived NGN2 neurons (BR43)

Row | SMILES | miR-132-3p level in NGN2-iNs
1 | CC(C)(Oc1ccc(Cl)cc1)C(=O)O [Clofibric Acid] | -0.0903
2 | COc1ccc(C(=O)Nc2sc3c(c2C(N)=O)CCCC3)cc1OC | 0.179
3 | O=NO [Sodium Nitrite] | 0.723
4 | COC1C(O)CC(=O)OC(C)CC=CC=CC(OC2CCC(N(C)C)C(C)O2)C(C)CC(CC=O)C1OC1OC(C)C(OC2CC(C)(O)C(O)C(C)O2)C(N(C)C)C1O (stereo not drawn) [Spiramycin] | 0.172
5 | COc1cc2ncc(-c3ccccc3)nc2cc1OC [Tyrphostin AG 1296] | -0.338
6 | CS(=O)(=O)c1cccc(CNc2nc(Nc3ccc4c(c3)CCC(=O)N4)ncc2C(F)(F)F)c1 | 0.318
7 | CC1(C)CCC(CN2CCN(c3ccc(C(=O)NS(=O)(=O)c4ccc(NCC5CCOCC5)c([N+](=O)[O-])c4)c(Oc4cnc5[nH]ccc5c4)c3)CC2)=C(c2ccc(Cl)cc2)C1 [Venetoclax (ABT-199, GDC-0199)] | -0.999
8 | CCCCCCCCCCC[C@@H](C[C@@H]1OC(=O)[C@H]1CCCCCC)OC(=O)[C@H](CC(C)C)NC=O [Orlistat] | 0.198
9 | CCN(CCO)CCCOc1ccc2c(Nc3cc(CC(=O)Nc4cccc(F)c4)[nH]n3)ncnc2c1 [Barasertib (AZD1152-HQPA)] | 0.0275
10 | CC1CCc2c(N3CCC(O)CC3)c(F)cc3c(=O)c(C(=O)O)cn1c23 (stereo not drawn) [Nadifloxacin] | 0.785
11 | NC12CC3CC(CC(C3)C1)C2 [Amantadine HCl] | 1.25
12 | O=c1c2ccccc2oc2ccccc12 [Xanthone] | -0.176
13 | Nc1ncn([C@H]2C[C@H](O)[C@@H](CO)O2)c(=O)n1 [Decitabine] | 0.342
14 | O=c1cc(-c2ccc(O)c(O)c2)oc2cc(O)cc(O)c12 [Luteolin] | 1.2
15 | CC(C)/N=c1\cc2n(-c3ccc(Cl)cc3)c3ccccc3nc-2cc1Nc1ccc(Cl)cc1 [Clofazimine] | -0.188
16 | C[C@@H]1[C@H](O)[C@@H](C)/C=C/C=C/C=C/C=C/C=C/C=C/C=C/[C@H](O[C@@H]2O[C@H](C)[C@@H](O)[C@H](N)[C@@H]2O)C[C@@H]2O[C@](O)(C[C@@H](O)C[C@@H](O)[C@H](O)CC[C@@H](O)C[C@@H](O)CC(=O)O[C@H]1C)C[C@H](O)[C@H]2C(=O)O [Amphotericin B] | -0.029
17 | COc1ccc(CC2c3cc(OC)c(OC)cc3CC[N+]2(C)CCC(=O)OCCCCCOC(=O)CC[N+]2(C)CCc3cc(OC)c(OC)cc3C2Cc2ccc(OC)c(OC)c2)cc1OC (stereo not drawn) [Atracurium Besylate] | -0.71
18 | CC(=O)[C@H]1CC[C@H]2[C@@H]3CC=C4C[C@@H](O)CC[C@]4(C)[C@H]3CC[C@]12C [Pregnenolone] | 0.134

Single values from the results shown.
CC(C)/N=c1\cc2n(-c3ccc(Cl)cc3)c3ccccc3nc-2cc1Nc1ccc(Cl)cc1 [Clofazimine] | miR-132-3p level in NGN2-iNs: -0.188
CCCCCCCCCCC[C@@H](C[C@@H]1OC(=O)[C@H]1CCCCCC)OC(=O)[C@H](CC(C)C)NC=O [Orlistat] | miR-132-3p level in NGN2-iNs: 0.198
